The other results are listed elsewhere or left out.
Compound: CC(C)(O)CC(=O)NCCn1ccc2ncnc(Nc3ccc(Oc4cccc(C(F)(F)F)c4)c(Cl)c3)c21
Test: log2 fold change, soluble protein after heating vs DMSO (PISA); higher = thermal stabilisation; K562 cells, 10 uM, 30 min; active = over 0.2 and 3.5 SD of the protein, either way, in both replicates (recomputed)
Outline: (§1)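 K562 cells at 2×10^6 cells/mL were given 10 μM compound for 30 min. Aliquots then went through 3 min of heating across 48°C-58°C, were pooled, and were extracted in PBS with 0.5% NP-40 at 4°C, and the supernatant after 21,000xg for 90 min was quantified by TMTpro 16plex LC-MS/MS with channel sums equalised. Thermal stability relative to control samples, from duplicates, is given as log2 fold change.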

Chains of the proteins cited; added tags and fusions are not shown. Lines headed by an entry give the natural chain unless they say otherwise; changes in a name come on top.
UniProt Q00013: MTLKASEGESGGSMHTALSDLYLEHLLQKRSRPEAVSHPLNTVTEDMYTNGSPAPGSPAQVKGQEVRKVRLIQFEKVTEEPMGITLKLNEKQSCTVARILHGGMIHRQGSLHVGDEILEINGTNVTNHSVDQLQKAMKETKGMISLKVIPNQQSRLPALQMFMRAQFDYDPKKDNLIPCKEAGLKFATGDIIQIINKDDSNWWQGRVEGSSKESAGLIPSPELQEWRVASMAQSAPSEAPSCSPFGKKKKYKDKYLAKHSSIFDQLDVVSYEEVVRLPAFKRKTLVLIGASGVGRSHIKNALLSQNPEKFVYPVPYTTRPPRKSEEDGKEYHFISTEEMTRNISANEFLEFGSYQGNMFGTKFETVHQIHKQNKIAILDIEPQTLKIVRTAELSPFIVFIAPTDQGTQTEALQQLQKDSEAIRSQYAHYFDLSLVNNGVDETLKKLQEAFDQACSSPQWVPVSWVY
UniProt Q8N108: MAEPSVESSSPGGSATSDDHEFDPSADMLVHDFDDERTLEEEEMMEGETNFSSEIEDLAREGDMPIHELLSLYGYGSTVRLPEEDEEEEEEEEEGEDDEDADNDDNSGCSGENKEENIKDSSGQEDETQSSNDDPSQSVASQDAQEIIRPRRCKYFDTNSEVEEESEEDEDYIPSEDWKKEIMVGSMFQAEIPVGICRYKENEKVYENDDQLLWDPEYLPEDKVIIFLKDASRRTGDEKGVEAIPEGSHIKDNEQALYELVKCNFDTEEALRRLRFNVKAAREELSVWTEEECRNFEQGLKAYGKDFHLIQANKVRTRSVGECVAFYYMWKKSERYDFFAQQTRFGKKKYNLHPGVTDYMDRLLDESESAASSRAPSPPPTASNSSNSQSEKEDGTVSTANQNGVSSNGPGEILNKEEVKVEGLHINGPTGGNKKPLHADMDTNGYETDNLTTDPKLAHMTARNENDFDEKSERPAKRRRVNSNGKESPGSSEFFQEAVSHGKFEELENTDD
UniProt O95396: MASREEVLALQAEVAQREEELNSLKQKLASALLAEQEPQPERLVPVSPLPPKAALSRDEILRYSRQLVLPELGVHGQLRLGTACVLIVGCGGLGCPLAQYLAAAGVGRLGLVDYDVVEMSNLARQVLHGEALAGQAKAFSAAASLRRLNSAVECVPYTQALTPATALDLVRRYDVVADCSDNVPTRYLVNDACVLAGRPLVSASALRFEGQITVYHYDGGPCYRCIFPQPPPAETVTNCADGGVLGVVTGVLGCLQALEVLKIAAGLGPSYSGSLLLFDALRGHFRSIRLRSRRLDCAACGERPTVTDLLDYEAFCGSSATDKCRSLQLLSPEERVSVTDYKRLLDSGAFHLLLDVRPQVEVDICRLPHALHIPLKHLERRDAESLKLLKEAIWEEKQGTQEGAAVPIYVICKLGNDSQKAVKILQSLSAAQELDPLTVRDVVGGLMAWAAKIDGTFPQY
UniProt O75352: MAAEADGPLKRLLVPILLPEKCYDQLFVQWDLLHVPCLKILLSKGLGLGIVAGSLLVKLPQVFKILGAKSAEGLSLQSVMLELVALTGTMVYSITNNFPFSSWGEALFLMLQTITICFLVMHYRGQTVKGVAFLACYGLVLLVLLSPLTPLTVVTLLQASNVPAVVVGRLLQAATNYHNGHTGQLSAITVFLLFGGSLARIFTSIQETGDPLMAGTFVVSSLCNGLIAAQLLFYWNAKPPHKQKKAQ
UniProt Q9H000: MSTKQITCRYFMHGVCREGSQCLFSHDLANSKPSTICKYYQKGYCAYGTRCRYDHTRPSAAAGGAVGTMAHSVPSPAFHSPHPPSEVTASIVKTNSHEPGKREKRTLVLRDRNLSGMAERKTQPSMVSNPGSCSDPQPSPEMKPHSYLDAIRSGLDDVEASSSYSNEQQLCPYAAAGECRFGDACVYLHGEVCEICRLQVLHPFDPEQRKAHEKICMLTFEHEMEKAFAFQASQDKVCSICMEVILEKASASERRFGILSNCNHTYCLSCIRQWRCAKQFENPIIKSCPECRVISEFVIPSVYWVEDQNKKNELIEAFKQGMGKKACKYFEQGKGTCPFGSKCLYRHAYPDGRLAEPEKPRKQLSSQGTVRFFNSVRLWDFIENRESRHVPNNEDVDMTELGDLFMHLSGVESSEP
UniProt Q9UH92: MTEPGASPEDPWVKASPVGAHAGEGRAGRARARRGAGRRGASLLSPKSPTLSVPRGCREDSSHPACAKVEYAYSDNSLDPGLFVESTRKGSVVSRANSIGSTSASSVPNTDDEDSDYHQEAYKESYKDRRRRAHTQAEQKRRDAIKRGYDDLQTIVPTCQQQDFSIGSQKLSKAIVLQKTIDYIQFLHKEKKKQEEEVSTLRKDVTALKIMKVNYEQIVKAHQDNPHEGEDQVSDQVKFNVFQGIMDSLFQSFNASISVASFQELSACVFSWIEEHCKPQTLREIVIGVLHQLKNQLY
UniProt Q8WV92, whole entry, looked up: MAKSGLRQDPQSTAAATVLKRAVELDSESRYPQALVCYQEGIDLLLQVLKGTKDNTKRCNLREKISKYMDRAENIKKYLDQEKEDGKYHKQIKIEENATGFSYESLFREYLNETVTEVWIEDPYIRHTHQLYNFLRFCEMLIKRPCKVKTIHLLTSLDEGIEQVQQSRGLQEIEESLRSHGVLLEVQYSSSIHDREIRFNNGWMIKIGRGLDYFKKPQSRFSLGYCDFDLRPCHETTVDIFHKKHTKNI
UniProt Q9BPX6: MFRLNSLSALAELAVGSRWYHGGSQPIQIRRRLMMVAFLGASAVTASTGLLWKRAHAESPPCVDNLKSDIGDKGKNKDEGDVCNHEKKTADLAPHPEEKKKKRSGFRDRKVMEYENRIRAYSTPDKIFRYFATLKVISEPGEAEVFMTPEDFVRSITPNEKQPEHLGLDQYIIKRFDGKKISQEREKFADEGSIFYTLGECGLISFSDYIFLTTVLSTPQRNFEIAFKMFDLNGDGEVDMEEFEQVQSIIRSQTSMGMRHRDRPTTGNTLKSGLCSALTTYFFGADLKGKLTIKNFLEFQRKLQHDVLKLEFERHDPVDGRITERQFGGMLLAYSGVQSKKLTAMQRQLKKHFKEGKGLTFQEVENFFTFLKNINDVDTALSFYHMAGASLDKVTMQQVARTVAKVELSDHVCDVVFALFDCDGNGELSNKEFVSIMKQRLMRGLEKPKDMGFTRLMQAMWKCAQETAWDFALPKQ
UniProt P39210: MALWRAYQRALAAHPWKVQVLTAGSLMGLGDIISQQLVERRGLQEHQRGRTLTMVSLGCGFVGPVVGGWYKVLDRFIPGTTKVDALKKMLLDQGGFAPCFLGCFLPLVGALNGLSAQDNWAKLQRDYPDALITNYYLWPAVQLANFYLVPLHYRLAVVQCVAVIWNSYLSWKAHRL
UniProt Q9H081: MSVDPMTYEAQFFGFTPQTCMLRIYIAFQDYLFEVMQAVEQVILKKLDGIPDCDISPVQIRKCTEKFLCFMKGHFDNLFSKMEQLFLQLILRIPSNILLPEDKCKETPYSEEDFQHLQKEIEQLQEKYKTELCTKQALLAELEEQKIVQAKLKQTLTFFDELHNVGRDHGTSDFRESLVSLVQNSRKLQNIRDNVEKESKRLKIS
UniProt Q9NYP9: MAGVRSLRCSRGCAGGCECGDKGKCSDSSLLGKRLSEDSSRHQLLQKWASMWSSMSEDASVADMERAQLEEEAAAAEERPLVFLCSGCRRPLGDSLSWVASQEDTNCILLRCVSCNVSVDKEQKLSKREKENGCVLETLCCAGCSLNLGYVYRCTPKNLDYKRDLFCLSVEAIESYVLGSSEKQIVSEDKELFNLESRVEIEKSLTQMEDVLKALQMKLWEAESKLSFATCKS
UniProt Q9BVC4, whole entry, looked up: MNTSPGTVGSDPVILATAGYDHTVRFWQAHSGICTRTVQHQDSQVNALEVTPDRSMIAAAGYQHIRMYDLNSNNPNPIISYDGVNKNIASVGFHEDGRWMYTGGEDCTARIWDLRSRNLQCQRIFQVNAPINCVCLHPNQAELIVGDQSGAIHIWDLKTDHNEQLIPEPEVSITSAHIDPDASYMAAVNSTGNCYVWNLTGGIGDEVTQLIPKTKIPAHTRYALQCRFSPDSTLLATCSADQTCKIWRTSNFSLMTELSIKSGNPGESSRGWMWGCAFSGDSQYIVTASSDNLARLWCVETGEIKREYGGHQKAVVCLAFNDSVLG
UniProt Q9BUB5: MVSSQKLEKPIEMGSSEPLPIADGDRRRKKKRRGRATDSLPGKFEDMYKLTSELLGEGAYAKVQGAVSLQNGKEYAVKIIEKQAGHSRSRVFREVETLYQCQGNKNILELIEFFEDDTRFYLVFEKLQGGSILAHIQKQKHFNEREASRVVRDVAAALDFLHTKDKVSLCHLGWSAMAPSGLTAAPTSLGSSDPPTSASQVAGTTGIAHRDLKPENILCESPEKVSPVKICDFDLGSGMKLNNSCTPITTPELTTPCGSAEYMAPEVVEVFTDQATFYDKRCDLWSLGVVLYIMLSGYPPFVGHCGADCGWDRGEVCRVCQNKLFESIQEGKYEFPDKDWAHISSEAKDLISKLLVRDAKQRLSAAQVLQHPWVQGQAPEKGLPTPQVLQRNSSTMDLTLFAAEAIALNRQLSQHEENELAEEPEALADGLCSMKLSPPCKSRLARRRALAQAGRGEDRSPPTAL
UniProt Q9HCE1: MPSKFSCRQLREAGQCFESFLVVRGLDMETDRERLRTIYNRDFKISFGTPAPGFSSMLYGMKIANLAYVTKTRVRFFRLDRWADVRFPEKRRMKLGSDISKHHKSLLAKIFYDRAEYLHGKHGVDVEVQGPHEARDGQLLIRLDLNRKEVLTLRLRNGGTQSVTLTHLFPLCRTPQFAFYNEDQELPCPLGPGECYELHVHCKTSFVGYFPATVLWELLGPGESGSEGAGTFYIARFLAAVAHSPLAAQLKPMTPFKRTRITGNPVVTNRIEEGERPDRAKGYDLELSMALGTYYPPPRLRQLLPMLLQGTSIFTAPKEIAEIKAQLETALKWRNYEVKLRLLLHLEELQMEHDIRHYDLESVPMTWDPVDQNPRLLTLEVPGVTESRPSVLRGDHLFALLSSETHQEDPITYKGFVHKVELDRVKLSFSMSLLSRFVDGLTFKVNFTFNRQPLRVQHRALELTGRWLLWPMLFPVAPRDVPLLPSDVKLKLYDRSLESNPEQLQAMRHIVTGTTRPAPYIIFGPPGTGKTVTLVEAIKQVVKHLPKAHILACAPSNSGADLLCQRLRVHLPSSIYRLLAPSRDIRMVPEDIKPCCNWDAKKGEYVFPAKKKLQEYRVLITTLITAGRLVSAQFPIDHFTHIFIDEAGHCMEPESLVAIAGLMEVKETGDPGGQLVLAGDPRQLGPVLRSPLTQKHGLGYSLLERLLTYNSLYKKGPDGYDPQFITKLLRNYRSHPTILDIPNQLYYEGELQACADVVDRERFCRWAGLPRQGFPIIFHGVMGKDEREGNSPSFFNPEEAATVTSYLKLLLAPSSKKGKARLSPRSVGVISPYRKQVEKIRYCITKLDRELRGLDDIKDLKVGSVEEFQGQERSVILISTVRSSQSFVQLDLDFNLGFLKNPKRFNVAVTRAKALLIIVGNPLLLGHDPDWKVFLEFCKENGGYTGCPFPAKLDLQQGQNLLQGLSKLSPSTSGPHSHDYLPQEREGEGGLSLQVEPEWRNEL
UniProt Q96T76: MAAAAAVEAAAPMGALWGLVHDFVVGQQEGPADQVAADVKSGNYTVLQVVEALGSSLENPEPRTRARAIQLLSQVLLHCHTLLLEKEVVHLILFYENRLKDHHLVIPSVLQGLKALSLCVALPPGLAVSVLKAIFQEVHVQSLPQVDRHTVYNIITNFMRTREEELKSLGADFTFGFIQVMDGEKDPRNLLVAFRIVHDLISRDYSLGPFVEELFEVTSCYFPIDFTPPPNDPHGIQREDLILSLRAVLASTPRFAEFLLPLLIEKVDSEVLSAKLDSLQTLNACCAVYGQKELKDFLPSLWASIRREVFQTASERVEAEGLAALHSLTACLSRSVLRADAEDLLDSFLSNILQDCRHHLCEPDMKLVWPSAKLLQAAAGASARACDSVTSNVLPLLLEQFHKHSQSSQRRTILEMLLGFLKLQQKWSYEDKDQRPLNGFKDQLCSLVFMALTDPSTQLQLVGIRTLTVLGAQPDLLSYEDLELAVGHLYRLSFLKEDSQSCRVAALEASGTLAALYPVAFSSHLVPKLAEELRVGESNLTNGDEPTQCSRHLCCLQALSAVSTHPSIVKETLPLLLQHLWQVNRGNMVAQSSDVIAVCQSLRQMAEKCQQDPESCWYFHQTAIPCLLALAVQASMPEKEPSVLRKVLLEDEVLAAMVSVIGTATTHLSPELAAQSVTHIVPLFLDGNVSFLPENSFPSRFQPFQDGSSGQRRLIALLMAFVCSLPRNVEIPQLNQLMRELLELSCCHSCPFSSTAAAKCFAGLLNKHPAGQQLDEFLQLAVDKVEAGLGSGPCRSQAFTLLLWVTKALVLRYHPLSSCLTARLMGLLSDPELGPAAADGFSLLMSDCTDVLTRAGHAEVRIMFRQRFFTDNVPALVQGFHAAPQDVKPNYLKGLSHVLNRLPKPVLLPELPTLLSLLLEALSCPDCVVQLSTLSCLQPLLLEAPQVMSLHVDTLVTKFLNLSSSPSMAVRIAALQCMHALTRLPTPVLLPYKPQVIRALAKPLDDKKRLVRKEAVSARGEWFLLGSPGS

Target	log2 fold change
MPP1 (UniProt Q00013)	inactive: -0.087
MICU2 (UniProt Q8IYU8)	inactive: -0.12
MICOS13 (UniProt Q5XKP0)	inactive: -0.193
MIER1 isoform 12 (UniProt Q8N108)	inactive: -0.021
MPHOSPH10 (UniProt O00566)	inactive: 0.089
MOCS3 (UniProt O95396)	inactive: -0.11
MINK1 (UniProt Q8N4C8)	inactive: 0.053
MIF (UniProt P14174)	inactive: -0.119
MPDU1 (UniProt O75352)	inactive: 0.025
MORC3 (UniProt Q14149)	inactive: -0.122
MKRN2 (UniProt Q9H000)	inactive: 0.017
MRPL46 (UniProt Q9H2W6)	inactive: -0.008
MIEN1 (UniProt Q9BRT3)	inactive: -0.091
MRPL47 (UniProt Q9HD33)	inactive: 0.016
MON2 isoform 5 (UniProt Q7Z3U7)	inactive: -0.076
MRPL34 (UniProt Q9BQ48)	inactive: 0.042
MRPL55 isoform 2 (UniProt Q7Z7F7)	inactive: 0.003
MLX (UniProt Q9UH92)	inactive: -0.163
MRPL39 (UniProt Q9NYK5)	inactive: 0.026

Target	log2 fold change
MRPL50 (UniProt Q8N5N7)	inactive: -0.001
MITD1 (UniProt Q8WV92)	inactive: -0.296
MIEF1 (UniProt Q9NQG6)	inactive: -0.183
MICU1 isoform 3 (UniProt Q9BPX6)	inactive: -0.016
MON1B (UniProt Q7L1V2)	inactive: -0.006
MPV17 (UniProt P39210)	inactive: -0.127
MIS12 (UniProt Q9H081)	inactive: -0.151
MND1 (UniProt Q9BWT6)	inactive: 0.008
MIS18A (UniProt Q9NYP9)	inactive: 0.024
MLST8 (UniProt Q9BVC4)	inactive: -0.049
MNAT1 (UniProt P51948)	inactive: 0.024
MORF4L2 (UniProt Q15014)	inactive: 0.039
MIEF1 (UniProt L0R8F8)	inactive: 0.011
MKNK1 (UniProt Q9BUB5)	inactive: -0.032
MOV10 (UniProt Q9HCE1)	inactive: 0.082
MRPL57 (UniProt Q9BQC6)	inactive: 0.015
MMS19 isoform 8 (UniProt Q96T76)	inactive: -0.082
MPRIP isoform 2 (UniProt Q6WCQ1)	inactive: 0.119
MICAL3 (UniProt Q7RTP6)	inactive: -0.029

Compound: CC(C)C1=C2N=C(C=C(N2N=C1)NCC3=CC=CC=C3)NCCCCCCN
Test: as above
Outline: as §1

Target	log2 fold change
MPP1 (UniProt Q00013)	inactive: -0.147
MICU2 (UniProt Q8IYU8)	inactive: -0.292
MICOS13 (UniProt Q5XKP0)	inactive: -0.146
MIER1 isoform 12 (UniProt Q8N108)	inactive: -0.062
MPHOSPH10 (UniProt O00566)	inactive: -0.071
MOCS3 (UniProt O95396)	inactive: -0.156
MINK1 (UniProt Q8N4C8)	inactive: 0.021
MIF (UniProt P14174)	inactive: 0.052
MPDU1 (UniProt O75352)	inactive: 0.078
MORC3 (UniProt Q14149)	inactive: -0.051
MKRN2 (UniProt Q9H000)	inactive: 0.032
MRPL46 (UniProt Q9H2W6)	inactive: -0.073
MIEN1 (UniProt Q9BRT3)	inactive: 0.074
MRPL47 (UniProt Q9HD33)	inactive: -0.001
MON2 isoform 5 (UniProt Q7Z3U7)	inactive: -0.088
MRPL34 (UniProt Q9BQ48)	inactive: -0.137
MRPL55 isoform 2 (UniProt Q7Z7F7)	inactive: 0.013
MLX (UniProt Q9UH92)	inactive: -0.236
MRPL39 (UniProt Q9NYK5)	inactive: -0.053

Target	log2 fold change
MRPL50 (UniProt Q8N5N7)	inactive: -0.014
MITD1 (UniProt Q8WV92)	active: -0.77
MIEF1 (UniProt Q9NQG6)	inactive: -0.247
MICU1 isoform 3 (UniProt Q9BPX6)	active: -0.285
MON1B (UniProt Q7L1V2)	active: -0.406
MPV17 (UniProt P39210)	inactive: -0.088
MIS12 (UniProt Q9H081)	inactive: -0.087
MND1 (UniProt Q9BWT6)	inactive: -0.182
MIS18A (UniProt Q9NYP9)	inactive: -0.032
MLST8 (UniProt Q9BVC4)	inactive: -0.136
MNAT1 (UniProt P51948)	inactive: 0.062
MORF4L2 (UniProt Q15014)	inactive: 0.052
MIEF1 (UniProt L0R8F8)	inactive: -0.021
MKNK1 (UniProt Q9BUB5)	inactive: -0.065
MOV10 (UniProt Q9HCE1)	inactive: 0.02
MRPL57 (UniProt Q9BQC6)	inactive: -0.043
MMS19 isoform 8 (UniProt Q96T76)	inactive: -0.216
MPRIP isoform 2 (UniProt Q6WCQ1)	inactive: -0.033
MICAL3 (UniProt Q7RTP6)	inactive: -0.094

From the supplement of paper PMC10849652
